Some entries share one result that the patent states for a list of compounds.
Experiment: Pharmacokinetic profiles (plasma concentration versus time) following subcutaneous injection in rats
Format: in vivo
Conditions: solution formulation, within about 12 hours

| Compound | plasma concentration of pramlintide | plasma concentration of metreleptin |
| --- | --- | --- |
| CC[C@H](C)[C@H](NC(=O)[C@@H]1CCCN1C(=O)CNC(=O)[C@H](Cc1ccccc1)NC(=O)[C@H](CC(N)=O)NC(=O)[C@H](CC(N)=O)NC(=O)[C@H](CO)NC(=O)[C@H](CO)NC(=O)[C@H](Cc1c[nH]cn1)NC(=O)[C@@H](NC(=O)[C@H](CC(C)C)NC(=O)[C@H](Cc1ccccc1)NC(=O)[C@H](CC(N)=O)NC(=O)[C@H](C)NC(=O)[C@H](CC(C)C)NC(=O)[C@H](CCCNC(=N)N)NC(=O)[C@H](CCC(N)=O)NC(=O)[C@@H](NC(=O)[C@H](C)NC(=O)[C@@H]1CSSC[C@H](NC(=O)[C@@H](N)CCCCN)C(=O)N[C@@H](CC(N)=O)C(=O)N[C@@H]([C@@H](C)O)C(=O)N[C@@H](C)C(=O)N[C@@H]([C@@H](C)O)C(=O)N1)[C@@H](C)O)C(C)C)C(=O)N[C@@H](CC(C)C)C(=O)N1CCC[C@H]1C(=O)N1CCC[C@H]1C(=O)N[C@H](C(=O)N[C@@H](CC(N)=O)C(=O)N[C@H](C(=O)NCC(=O)N[C@@H](CO)C(=O)N[C@@H](CC(N)=O)C(=O)N[C@H](C(=O)N[C@@H](Cc1ccc(O)cc1)C(N)=O)[C@@H](C)O)C(C)C)[C@@H](C)O [pramlintide] | less than 1 picogram/mL | – |
| metreleptin: recombinant human methionyl leptin, SEQ ID NO:1; in b9 given in a solution formulation | – | less than 1 ng/mL |

Source: US20140249077A1, “GEL COMPOSITIONS” (ASTRAZENECA PHARMACEUTICALS LP, priority 2011, published 2014)
